Measurements reported in patent US11230581B2, “Peptides and combination of peptides for use in immunotherapy against ovarian cancer and other cancers” (Immatics Biotechnologies GmbH, priority 2015, dated 2022).

Tested on: additional tumor types
Assay: LC-MS detection and over-presentation of the peptides on additional tumor types, cell lines and primary cultures
Parameters: species or system human
Conditions: for peptide additionally detected on tumor samples (positive/measured): sample set of FIG. 1A-D; for peptide additionally found on tumor samples (positive/measured): sample set of FIG. 1E-K
[1] = cell lines and primary cultures
[2] = leukocytic leukemia cancers (FIG. 1D: leukemias)

Row | Sequence | number of samples with detectable presentation of the peptide [1] | number of samples with detectable presentation of the peptide (esophageal cancers) | number of samples with detectable presentation of the peptide (head and neck cancers) | number of samples with detectable presentation of the peptide [2] | number of samples with detectable presentation of the peptide (lung cancers) | number of samples with detectable presentation of the peptide (lymph node cancers) | number of samples with detectable presentation of the peptide (skin cancers) | number of samples with detectable presentation of the peptide (urinary bladder cancers) | number of samples with detectable presentation of the peptide (brain cancers) | number of samples with detectable presentation of the peptide (cancer tissues, total) | number of samples with detectable presentation of the peptide (liver cancers) | number of samples with detectable presentation of the peptide (uterus cancers) | number of samples with detectable presentation of the peptide (breast cancers) | further results
1 | ALLPLSPYL (listed as Homo sapiens) [SEQ ID NO.: 427] |  |  |  |  |  |  |  |  |  |  |  |  |  | peptide additionally detected on tumor samples (positive/measured) (breast cancers): 3/6; peptide additionally detected on tumor samples (positive/measured) (urinary bladder cancers): 1/4; peptide additionally detected on tumor samples (positive/measured) (uterine cancers): 3/4
2 | ALNPEIVSV (listed as Homo sapiens) [SEQ ID NO.: 148] | 3 | 1 | 2 | 1 | 5 | 3 | 2 | 4 |  |  |  |  |  | 
3 | ALWDIETGQQTTT (listed as Homo sapiens) [SEQ ID NO.: 560] | 5 | 1 | 2 | 1 | 5 | 6 | 1 | 1 | 1 | 26 | 1 | 1 |  | number of samples with detectable presentation of the peptide (esophageal and stomach cancer): 1; number of samples with detectable presentation of the peptide (gallbladder cancer): 1; number of samples with detectable presentation of the peptide (prostate cancers): 1
4 | FLFPNQYVDV (listed as Homo sapiens) [SEQ ID NO.: 248] | 3 |  |  | 2 | 9 | 2 | 2 |  |  | 24 | 1 | 1 | 2 | number of samples with detectable presentation of the peptide (bile duct cancers): 1; number of samples with detectable presentation of the peptide (prostate cancers): 1
5 | FLLEDDIHVS (listed as Homo sapiens) [SEQ ID NO.: 38] | 1 |  | 1 | 4 | 5 | 6 | 3 | 2 |  | 28 |  | 1 | 2 | number of samples with detectable presentation of the peptide (myeloid cell cancer): 1; number of samples with detectable presentation of the peptide (rectum cancers): 1
6 | GLLRDEALAEV (listed as Homo sapiens) [SEQ ID NO.: 444] |  |  |  |  |  |  |  |  |  |  |  |  |  | peptide additionally found on tumor samples (positive/measured) (lymph node cancers): 6/20
7 | ILVEADGAWVV (listed as Homo sapiens) [SEQ ID NO.: 77] | 4 |  |  | 1 | 4 | 3 | 1 | 1 | 1 | 19 |  | 1 | 2 | number of samples with detectable presentation of the peptide (colon cancers): 1; number of samples with detectable presentation of the peptide (prostate cancers): 1
8 | KIFEMLEGV (listed as Homo sapiens) [SEQ ID NO.: 11] |  | 1 |  |  | 10 | 1 |  |  |  | 21 | 1 | 2 |  | number of samples with detectable presentation of the peptide (bile duct cancers): 1
9 | KLAEGLDIQL (listed as Homo sapiens) [SEQ ID NO.: 449] |  |  |  |  |  |  |  |  |  |  |  |  |  | peptide additionally found on tumor samples (positive/measured) (lymph node cancers): 1/20
10 | KLDDLTQDLTV (listed as Homo sapiens) [SEQ ID NO.: 32] | 1 | 1 | 2 |  | 4 | 3 |  | 2 |  | 29 | 4 | 1 |  | number of samples with detectable presentation of the peptide (bile duct cancers): 2; number of samples with detectable presentation of the peptide (prostate cancers): 1; number of samples with detectable presentation of the peptide (rectum cancers): 1
11 | KLLNKIYEA (listed as Homo sapiens) [SEQ ID NO.: 620] | 3 | 2 |  |  | 5 | 1 |  | 1 | 5 | 27 |  | 1 | 2 | number of samples with detectable presentation of the peptide (myeloid cell cancer): 1; number of samples with detectable presentation of the peptide (prostate cancers): 3; number of samples with detectable presentation of the peptide (rectum cancers): 1
12 | KTINKVPTV (listed as Homo sapiens) [SEQ ID NO.: 198] | 2 |  | 1 |  | 14 | 1 |  | 2 | 3 | 36 | 1 | 1 | 2 | number of samples with detectable presentation of the peptide (colon cancers): 2; number of samples with detectable presentation of the peptide (rectum cancers): 1
13 | SLFGNSGILENV (listed as Homo sapiens) [SEQ ID NO.: 479] | 7 | 1 | 1 | 1 | 10 | 1 | 2 | 3 |  | 33 | 3 | 1 | 1 | number of samples with detectable presentation of the peptide (colon cancers): 1; number of samples with detectable presentation of the peptide (myeloid cell cancer): 1
14 | SLLEQGKEPWMV (listed as Homo sapiens) [SEQ ID NO.: 54] | 1 |  |  | 1 | 7 | 1 |  | 1 | 2 | 18 | 2 |  | 1 | number of samples with detectable presentation of the peptide (gallbladder cancer): 1
15 | SLMEPPAVLLL (listed as Homo sapiens) [SEQ ID NO.: 1] | 1 | 2 | 1 | 3 | 12 |  |  | 2 | 1 | 45 |  | 7 | 1 | peptide additionally detected on tumor samples (positive/measured) (AMLs): 1/2; number of samples with detectable presentation of the peptide (bone marrow cancers): 3; number of samples with detectable presentation of the peptide (kidney cancer): 1; number of samples with detectable presentation of the peptide (myeloid cell cancer): 1
16 | SLNDEVPEV (listed as Homo sapiens) [SEQ ID NO.: 157] |  |  |  |  |  |  |  |  |  |  |  |  |  | peptide additionally found on tumor samples (positive/measured) (lymph node cancers): 2/20
17 | SLSEIVPCL (listed as Homo sapiens) [SEQ ID NO.: 512] |  |  | 1 |  | 2 |  |  |  |  | 9 |  | 2 |  | number of samples with detectable presentation of the peptide (myeloid cell cancer): 1
18 | SLVESHLSDQLTL (listed as Homo sapiens) [SEQ ID NO.: 463] | 1 |  | 2 | 3 | 8 | 3 | 2 | 2 | 2 | 32 | 1 | 1 | 2 | number of samples with detectable presentation of the peptide (bile duct cancers): 1
